Experimental data reported in paper PMC8102003.
No constants are given. Whether binding was seen depends on the method and setting. Binding seen in cells or lysates may run through a third protein. A result given as binding can be weak or reduced; the word gives no strength.

Amino acid sequences for entries named in this document (tags omitted). A change or cut given only in a name is not applied to a line headed by its entry.
UniProt Q7Z2W4: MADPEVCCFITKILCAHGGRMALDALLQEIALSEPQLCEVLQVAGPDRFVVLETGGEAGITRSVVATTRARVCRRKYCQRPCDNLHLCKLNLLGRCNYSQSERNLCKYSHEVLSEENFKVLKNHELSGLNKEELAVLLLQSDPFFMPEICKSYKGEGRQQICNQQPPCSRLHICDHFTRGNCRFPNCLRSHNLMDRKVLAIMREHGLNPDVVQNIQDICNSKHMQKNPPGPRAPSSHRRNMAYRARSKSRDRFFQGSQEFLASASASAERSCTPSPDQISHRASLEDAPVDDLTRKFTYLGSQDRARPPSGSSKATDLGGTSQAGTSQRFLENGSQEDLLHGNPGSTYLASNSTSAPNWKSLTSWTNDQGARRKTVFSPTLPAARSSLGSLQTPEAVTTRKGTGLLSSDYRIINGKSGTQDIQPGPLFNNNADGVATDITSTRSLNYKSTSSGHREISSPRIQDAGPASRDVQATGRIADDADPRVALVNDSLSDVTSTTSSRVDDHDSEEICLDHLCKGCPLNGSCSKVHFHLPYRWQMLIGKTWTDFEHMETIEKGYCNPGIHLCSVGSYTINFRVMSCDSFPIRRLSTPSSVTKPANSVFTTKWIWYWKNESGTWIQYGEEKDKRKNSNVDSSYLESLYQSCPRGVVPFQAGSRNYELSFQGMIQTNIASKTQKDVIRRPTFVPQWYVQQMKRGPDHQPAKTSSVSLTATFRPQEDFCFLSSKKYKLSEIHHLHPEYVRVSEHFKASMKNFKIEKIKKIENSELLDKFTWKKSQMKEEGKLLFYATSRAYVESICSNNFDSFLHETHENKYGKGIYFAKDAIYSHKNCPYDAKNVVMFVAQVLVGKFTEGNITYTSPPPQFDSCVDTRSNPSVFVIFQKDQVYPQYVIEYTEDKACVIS
UniProt Q14258: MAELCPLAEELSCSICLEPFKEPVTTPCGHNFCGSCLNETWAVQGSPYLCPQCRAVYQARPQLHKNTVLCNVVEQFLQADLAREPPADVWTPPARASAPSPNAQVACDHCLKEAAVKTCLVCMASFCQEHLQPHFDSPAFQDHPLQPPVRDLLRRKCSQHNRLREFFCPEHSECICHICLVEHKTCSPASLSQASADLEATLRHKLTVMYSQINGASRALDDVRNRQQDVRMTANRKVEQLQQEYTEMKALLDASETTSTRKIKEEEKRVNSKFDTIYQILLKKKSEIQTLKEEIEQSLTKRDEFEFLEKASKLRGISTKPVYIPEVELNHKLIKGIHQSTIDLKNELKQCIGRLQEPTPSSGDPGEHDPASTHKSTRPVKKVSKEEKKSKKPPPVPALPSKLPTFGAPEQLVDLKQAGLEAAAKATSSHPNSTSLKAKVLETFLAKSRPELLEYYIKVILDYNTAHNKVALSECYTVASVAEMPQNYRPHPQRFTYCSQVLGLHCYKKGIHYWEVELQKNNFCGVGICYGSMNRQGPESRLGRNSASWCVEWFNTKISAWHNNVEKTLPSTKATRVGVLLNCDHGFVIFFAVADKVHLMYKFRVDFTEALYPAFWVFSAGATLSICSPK

Tests used:
[1] = target: human ZAP-L-HA (full-length long isoform, wild type) (human) (UniProt Q7Z2W4); test: co-IP; HEK293T ZAP-/- TRIM25-/- cells co-transfected with HA-tagged ZAP (WT, ΔZnF or RNA^null) and untagged TRIM25 or TRIM25 7KA; anti-HA precipitation; western blot for overexpressed ZAP and TRIM25 (Fig 5G)
[2] = target: ZAP RNA^null (human ZAP-L R74A, R75A, K76A)-3xHA (human) (UniProt Q7Z2W4); test: as above

- binding [1]: binds
- binding [2]: binds
Substance: TRIM25 7KA (TRIM25 RNA binding mutant, lysine cluster at 381–391 replaced by alanines) (from UniProt Q14258)
